# Screening data

From PubChem BioAssay record AID1159506 (NCATS, 2015).

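Genome-wide siRNA knockdown in TC32 Ewing sarcoma cells, comparing luciferase light from an NR0B1-promoter reporter with a CMV-promoter reporter 48 hours after transfection. Each siRNA was applied at 20 nM. A z-score of the log NR0B1-over-CMV signal, less the median of siRNAs with the same seed; more negative means a stronger specific loss of the NR0B1 reporter.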

The strongest results of the screen are mostly left out here. Sequences are the guide (antisense) strand, without overhang.

strand | gene | seed-corrected z-score
UUGGUGUUCUUCGCAAUAC | CEACAM16 | 0.7062
ACUGAUUUGAUAAAGUUCC | MLLT4 | 0.1336
AUACGAACCACAUCCUGGG | MED13L | 0.4054
UAAGUUUCCACACUCCUUU | ADAT1 | -0.7357
UUUUCAAGAUAUCUGGUUC | ZNF251 | 0.06164
AAAUCGGAACAGUUUUGCC | RANBP1 | -1.627
UUCGUAGGAAGUUUAGGAC | KCTD4 | -1.04
UGAGGUCCAAGUUAGUGAG | USP50 | 0.7527
UAAAGGUCUCCACUAACCC | ATPAF1 | 1.122
UUGGUUAUGAUCUCUGCUC | TACC2 | -0.1312
UACCAGAAUGAGCUCCUCG | SOWAHD | 0.799
UCGGUUGUAUGCAGUGUGC | PRSS48 | -1.316
AAAUAUACACCCUAUAGCC | CDK8 | 0.2958
UUUUGAAAAGUGGUUGAAC | USP17L2 | -0.5596
AAGCGAAAUCUGACAAUUC | MTMR10 | -0.2109
AGAAAUACAAACUCAAUUC | LAMTOR1 | -0.06557
UUGCUGUUCUUUAUCACCG | TULP1 | 0.7063
UUUAGGGAAAUGGACGUAC | NLRP11 | 0.05334
UCCUGGAUCCAGCUAUGCC | C5AR2 | -0.3242
UCACUCACCAGAGCAAAGC | P2RX7 | -0.06753
UUUGGUGACCACUUGAGGC | CES4A | 0.6445
UCAGUUGUAAGGCCCAAAG | GJB7 | -0.5332
UUUGUUGUCAUUGCGGCAG | TRIM42 | 0.2768
UAUUUUGUGAUCAUCAGAC | RRAGC | -0.2887
UUACUUUUAGGAAGGGCUG | ABLIM2 | 0.6241
UCAGUAUCAUUCAAGAGGC | CCNDBP1 | 1.459
AUCGUUCAUGUUGAUGUCG | PCSK2 | 0.973
AUAGAGACUAGGAUGCGGA | LTC4S | -0.8647
ACAGUGCUGCGUGAGAAGG | INHA | -0.4731
AAGCUUUGCACGUAACUGC | FRAT1 | 0.7591
UGCGAUUGAACAGUUCUUG | RTF1 | 0.3123
UAACUCUUGCCUUAAUGCC | PBXIP1 | -0.4722
UCUCGUUCCAACGAUCAAC | MRPL51 | 0.2673
AUACCAUUCAUUCCUAGUC | PIWIL3 | -0.2833
UUAUGGGCAGUUAGGGUUG | LOC400682 | -0.4527
UGAACUUGAAUUUGCAGCC | TSPYL4 | 0.2911
UCCGUGUACAGAAGUAGGC | MED12 | 1.272
UACACUUUAGGACUAACUU | UCHL1 | -0.7983
UACGUCGUCGAACACGUGG | EPS8L1 | -0.2572
AUUGAGACAGGUGAGAUGC | SEZ6 | -1.033
UCAGGUAGAAGUAUCGCUC | PALD1 | 0.2679
UAAUCGAAAACCAAUCUUC | LIN9 | -0.6724

5 of the entries, repeated:

strand,gene,seed-corrected z-score
AAGCGAAAUCUGACAAUUC,MTMR10,-0.2109
UCCGUGUACAGAAGUAGGC,MED12,1.272
UAUUUUGUGAUCAUCAGAC,RRAGC,-0.2887
AUACCAUUCAUUCCUAGUC,PIWIL3,-0.2833
AAGCUUUGCACGUAACUGC,FRAT1,0.7591